{"source": "paper PMC5472185", "biological_target": "PfCyc1 two-hybrid bait (Plasmodium falciparum)", "assay": "two-hybrid; pGBKT7 bait in PJ69-4alpha mated with pGADT7 prey in PJ69-4a; diploids plated onto medium lacking leucine, tryptophan, histidine and adenine", "note": "Results are given in words; binding and its absence hold for the method and conditions named. Binding calls can cover weak binding; strength is not graded here. Sequences can lack the tags named with a protein.", "data": [{"binder": "PfMRK-AD (protein, UniProt P90584 1-324) MENNSTERYIFKPNFLGEGSYGKVYKAYDTILKKEVAIKKMKLNEISNYIDDCGINFVLLREIKIMKEIKHKNIMSALDLYCEKDYINLVMEIMDYDLSKIINRKIFLTDSQKKCILLQILNGLNVLHKYYFMHRDLSPANIFINKKGEVKLADFGLCTKYGYDMYSDKLFRDKYKKNLNLTSKVVTLWYRAPELLLGSNKYNSSIDMWSFGCIFAELLLQKALFPGENEIDQLGKIFFLLGTPNENNWPEALCLPLYTEFTKATKKDFKTYFKIDDDDCIDLLTSFLKLNAHERISAEDAMKHRYFFNDPLPCDISQLPFNDL", "values": [{"measurement": "binding", "result": "binds"}]}]}
